Patent publication US9566250B2, “Artificial tissue constructs comprising alveolar cells and methods for using the same” (SANOFI PASTEUR VAXDESIGN CORPORATION, priority 2007, dated 2017)
At least one structure is not confirmed: it was looked up by name or label, or the drawing left a doubt.

Tested on: bilayer mucosal construct (primary human alveolar epithelial and endothelial cells)
Experiment: Cytokine production by bilayer alveolar mucosal construct (BioPlex/Luminex 22-plex)
Assay type: cell-based
Conditions: corticosteroid addition for 24 h vs control; FIG. 7
Procedure: Immunosuppressant effects on the cultured mucosal construct were tested by the addition of, for example, dexamethasone (0.5-0.1 μM) and hydrocortisone (5-10 μM) for 24 h. The effect of, for example, diesel particles (0.01-0.2 mg/mL) and urban dust (0.01-0.2 mg/mL) exposure was also studied in the alveolar tissue. NIST standards Diesel Particulate Matter (SRM 2975), and Urban Dust (SRM 1649a), containing both organic and inorganic components, were used as environmental irritants (FIG. 3). A BioPlex 22-Plex™ cytokine kit (Upstate) was used to quantify the cytokine levels in the collected media.
The cytokine profile of the bilayer construct prepared in a 0.33 cm^2 area Transwell™ cell culture device was compared with the alveolar epithelial cells cultured in T-25 flasks. Controls for each experiment with or without the various irritant treatments were also included in the experimental design.
The effects of immunosuppressant hormonal treatment (dexamethasone and hydrocortisone) and exposure to bacterial particles (E. coli and Staphylococcus aureus) on respiratory cells were examined by quantifying cytokine production by the mucosal tissue. […]
Using Luminex™ immunoassay technology, we simultaneously quantified the 22 cytokine and chemokines in the collected treatment media. […]

C[C@@H]1C[C@H]2[C@@H]3CCC4=CC(=O)C=C[C@]4(C)[C@@]3(F)[C@@H](O)C[C@]2(C)[C@@]1(O)C(=O)CO [dexamethasone]
cytokine production by the native cells of the bilayer mucosal construct: significant decrease
